PubChem BioAssay AID504793 | Drosophila RNAi Screening Center | 2011
Screen: 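Knock-downs allowing continued mitosis even though DNA is damaged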 (primary screen). System: Drosophila S2R+ cells. Reagent: long dsRNA against Drosophila genes, about 0.25 µg dsRNA per well. Duration: 4 days of dsRNA, then 4 hours of drug before read-out. Challenge: doxorubicin 0.5 µM for 4 hours to cause double-strand breaks, in cells also given a low, harmless dose of dsRNA against nbs to sensitise the assay. Measurement: 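Mitotic index as the number of phospho-histone H3-positive cells in each well following doxorubicin, given as raw counts without normalisation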. Scale: mitotic cells: higher = more cells in mitosis, weaker G2 arrest. Call rule: 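Genes are called active only when high mitotic counts were reproduced with independent dsRNAs and mitosis was checked for delay without damage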. Meaning of the calls: active = confirmed in follow-up tests; inactive = not confirmed.
The screen tested about 23,000 reagents; below is an unselected part of those that have a named target and a result. In the full data, 62 (0.27%) got an active call. 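Calls come from follow-up tests whose scores are not deposited, so confirmed genes may have low counts here; counts are not normalised per plate.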 Raw values vary from plate to plate and are shown uncorrected. Reagents against one gene are numbered here. Names joined by + are all predicted targets of the reagent.

target gene	reagent	mitotic cells, replicate 1	call
Ten-m	1	2	inactive
Ten-m	2	4	inactive
CG3640	1	7	inactive
Tbc1d22	1	9	inactive
trus	1	3	inactive
trus	2	1	inactive
Ugt37A2	1	9	inactive
Ugt37A2	2	7	inactive
CG9173	1	3	inactive
CG7299	1	7	inactive
CG7299	2	6	inactive
CG17361	1	5	inactive
Syt12	1	6	inactive
CG32284	1	29	inactive
Mlp84B	1	6	inactive
CG31668	1	8	inactive
CG14075	1	7	inactive
CG1946	1	8	inactive
CG1946	2	6	inactive
mdy	1	12	inactive
mdy	2	6	inactive
CG42304 + Snup	1	5	inactive
CG42304 + Snup	2	4	inactive
CG42304 + Snup	3	5	inactive
CG42304 + Snup	4	5	inactive
CG6282	1	7	inactive
CG6282	2	3	inactive
CG7497	1	7	inactive
CG7497	2	7	inactive
sha	1	4	inactive
Cyp49a1	1	3	inactive
Cyp49a1	2	7	inactive
CG18171	1	11	inactive
CG18171	2	1	inactive
Awh	1	4	inactive
CG32263	1	5	inactive
CG32263	2	2	inactive
rdgC	1	4	inactive
Klp59D	1	3	inactive
Klp59D	2	3	inactive
eys	1	3	inactive
eys	2	5	inactive
eys	3	5	inactive

Continued; the last 10 above are carried over.
target gene	reagent	mitotic cells, replicate 1	call
CG18171	2	1	inactive
Awh	1	4	inactive
CG32263	1	5	inactive
CG32263	2	2	inactive
rdgC	1	4	inactive
Klp59D	1	3	inactive
Klp59D	2	3	inactive
eys	1	3	inactive
eys	2	5	inactive
eys	3	5	inactive
CG15922	1	5	inactive
sl	1	10	inactive
sl	2	12	inactive
Fpps	1	16	inactive
CG7168	1	10	inactive
CG31106	1	9	inactive
Fuca	1	5	inactive
Cpr92F	1	10	inactive
CG33695 + cana	1	5	inactive
CG33695 + cana	2	8	inactive
Ttc30	1	9	inactive
Ttc30	2	3	inactive
CG4218	1	5	inactive
CG4218	2	5	inactive
Indy	1	7	inactive
CG14589	1		inactive
Sox14	1	8	inactive
Sox14	2	9	inactive
CG5793	1	10	inactive
CG5793	2	9	inactive
alpha-Man-Ic	1	5	inactive
alpha-Man-Ic	2	4	inactive
CG14132	1	4	inactive
Pgant5	1	9	inactive
link	1	4	inactive
link	2	6	inactive
CG8366	1	11	inactive
CG6337	1	5	inactive
CG6337	2	11	inactive
Spn88Eb	1	3	inactive
tap	1	7	inactive
nuf	1	4	inactive
nuf	2	9	inactive
nuf	3	7	inactive
nuf	4	2	inactive
